# PMC7819943, “Rice protein-binding microarrays: a tool to detect cis-acting elements near promoter regions in rice”
# Some of the results follow.
# Target: T1, OsSMF1 (Oryza sativa, UniProt Q6ZLB0 1-436)
# T1 sequence: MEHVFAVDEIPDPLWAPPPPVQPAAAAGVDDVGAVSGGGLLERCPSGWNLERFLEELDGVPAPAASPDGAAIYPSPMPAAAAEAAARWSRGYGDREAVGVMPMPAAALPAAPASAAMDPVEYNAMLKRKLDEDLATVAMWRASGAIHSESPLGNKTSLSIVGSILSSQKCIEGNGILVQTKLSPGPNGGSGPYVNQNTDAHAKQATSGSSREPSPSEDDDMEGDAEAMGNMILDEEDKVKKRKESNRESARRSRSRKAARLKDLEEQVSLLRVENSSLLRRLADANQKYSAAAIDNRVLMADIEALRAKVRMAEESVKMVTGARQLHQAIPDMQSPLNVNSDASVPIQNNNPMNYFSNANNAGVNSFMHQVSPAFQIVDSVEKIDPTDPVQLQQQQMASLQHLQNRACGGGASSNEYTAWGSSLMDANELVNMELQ
# Assay: protein-binding microarray (RPBM); PBS, 2% BSA, 51.3 ng/ul salmon testes DNA, 50 uM zinc acetate, 200 nM TF, 25 C, 1 h; high values mean tight binding
# Conditions: protein: recombinant; tags: N-terminal polyhistidine and DsRed monomer fusion (pET32a); chain copies: 2; label: CyDye5-dUTP incorporated in the synthesized complementary strand; 3' TTTTT single-stranded linker to array surface; dsDNA, one strand shown
# In short: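 The binding signal for each feature is its fluorescence intensity in arbitrary units. An Axon 4000B scanner was used to read a custom Agilent array that had been made double-stranded with Cy5-dUTP primer extension, blocked with 2% BSA, incubated at 25 °C for 1 h with 200 nM protein in PBS, 2% BSA, salmon testes DNA and 50 µM zinc acetate, and washed. The protein was an N-terminal polyhistidine–DsRed transcription factor fusion from E. coli BL21-CodonPlus, purified on Ni–NTA.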
row,Sequence,binding signal
1,AACTTAATTGACGACTCTTCGGGATTAGGATCGTGGACTACGGAGTCACCTAGTGCAG,9720 fluorescence intensity (a.u.)
2,GTATGTTGACCCTAGCCACGTGCATTAGTAGCATGAATGTCGGAGTCACCTAGTGCAG,3880 fluorescence intensity (a.u.)
3,ATTCCATGCATTTGACCTAGTTAGTTCTACACCTTACATCCGGAGTCACCTAGTGCAG,4830 fluorescence intensity (a.u.)
4,CCTCGCCTCGCCACGCCACGCCACGCCGCCGAAATTTCATCGGAGTCACCTAGTGCAG,7280 fluorescence intensity (a.u.)
5,GGCGCGCGCGCACTGGGGCAAGGGCGTGGCGACGGCGGCGCGGAGTCACCTAGTGCAG,3710 fluorescence intensity (a.u.)
6,TGGTAGTCATTTGAACGTGTTACATGTGTAGGTTTGGGCGCGGAGTCACCTAGTGCAG,3580 fluorescence intensity (a.u.)
7,TTTATTTTGCATTATAAGACTTATATGTGAGTCACACTTACGGAGTCACCTAGTGCAG,9210 fluorescence intensity (a.u.)
8,TTTTGAAGATTTAATTGCAATGAATTTAATGGTGTAATCGCGGAGTCACCTAGTGCAG,19400 fluorescence intensity (a.u.)
9,AGTAATTTTCTAGTTTCTCACCATGGTTCACTAGTTCATCCGGAGTCACCTAGTGCAG,26900 fluorescence intensity (a.u.)
10,AATAATAATCTAATGAAGATAAATAATCACAGTATATCATCGGAGTCACCTAGTGCAG,26500 fluorescence intensity (a.u.)
11,CAAGTCCAAGAGCACCATAAGCTAGTGACACATAGAGCCCCGGAGTCACCTAGTGCAG,4140 fluorescence intensity (a.u.)
12,GTCTTCTTCCTTCTTTCGTTGGTGCAGTCATTTCAGAGTACGGAGTCACCTAGTGCAG,3380 fluorescence intensity (a.u.)
13,CAATTTATGATGGCCCATTAGTCACCCAACTTAGGTACAGCGGAGTCACCTAGTGCAG,4290 fluorescence intensity (a.u.)
14,AGGTTGATTAGAAAAGGATGACCTGACTAGCACCCTCATTCGGAGTCACCTAGTGCAG,4700 fluorescence intensity (a.u.)
15,CTGCCACGCGGCCACGGCGGCGGCGGTCTCCAGGTGGAAGCGGAGTCACCTAGTGCAG,4050 fluorescence intensity (a.u.)
16,AGATAGCTAAGCTAAGCTAAGCTAGCCTCACTCCATGCTCCGGAGTCACCTAGTGCAG,23000 fluorescence intensity (a.u.)
17,GGCGGCACAGGTCGCCGTCGTCGCCACCGACGCGGCGTCGCGGAGTCACCTAGTGCAG,3730 fluorescence intensity (a.u.)
18,GCTGCATACGCAGGTGGTGTGATGACACGCAAACATCATGCGGAGTCACCTAGTGCAG,4740 fluorescence intensity (a.u.)
19,AAACGATACTGTCTGGTATCCCGATCCTGACAACCTTGTCCGGAGTCACCTAGTGCAG,3180 fluorescence intensity (a.u.)
20,CTGTGATTCGGCTGTTCCCGCGTCATGTATATATACGCCACGGAGTCACCTAGTGCAG,6220 fluorescence intensity (a.u.)
21,AATACTTCCAGCGACCTAAACGCGGATCGGCTCCTTCGAGCGGAGTCACCTAGTGCAG,25600 fluorescence intensity (a.u.)

row,Sequence,binding signal
1,AATCATCACATCATCACCGTCATCTTCTCTAGCATAGCAACGGAGTCACCTAGTGCAG,4630 fluorescence intensity (a.u.)
2,GATGGAAGACTGACTATGCATTGCGCCACAGAAGTCATGCCGGAGTCACCTAGTGCAG,3850 fluorescence intensity (a.u.)
3,AGCCGCCAAAATTAGTACACGCAAGCTTCGATAACGTTTTCGGAGTCACCTAGTGCAG,5480 fluorescence intensity (a.u.)
4,GCTATCGCGCGCGTGGAGTGCGACGTGCATGCGCATCACCCGGAGTCACCTAGTGCAG,3150 fluorescence intensity (a.u.)
5,ATGCGATTGATGATGTGGCAAATGCATCTCTAATGAATAACGGAGTCACCTAGTGCAG,10100 fluorescence intensity (a.u.)
6,CCATCTCGCTCGCTCACTCATGTCACTCGTCAGCCACTTCCGGAGTCACCTAGTGCAG,4150 fluorescence intensity (a.u.)
7,GGCCCAGCTAAGCTAGCGCCTATTAGGGCTTGCCCCGGCTCGGAGTCACCTAGTGCAG,31100 fluorescence intensity (a.u.)
8,CGGCGGTTGCATCCGTGCCCATGACTCCACCGACGCTCCCCGGAGTCACCTAGTGCAG,4050 fluorescence intensity (a.u.)
9,GATAAAGGTCTCTATTTGCATGACATATATCGTTACTATACGGAGTCACCTAGTGCAG,3570 fluorescence intensity (a.u.)
10,AACATATTGCTTAGCGATTTGGAATGCGTGCGTATCAAAACGGAGTCACCTAGTGCAG,3590 fluorescence intensity (a.u.)
11,CCGCCGCCGCCGCCGCATAAGCCCGCTTCTTCGCCGGGAGCGGAGTCACCTAGTGCAG,3280 fluorescence intensity (a.u.)
12,CACCGTCCAAACCGCTGAGGGACCTCATCTGCACTGGTTTCGGAGTCACCTAGTGCAG,21800 fluorescence intensity (a.u.)
13,CCCACGTGATATTGACGTGGCACTTACCATGATAATTTGACGGAGTCACCTAGTGCAG,18100 fluorescence intensity (a.u.)
14,CCAAATGAAGTTGAAGCTAAGCTATGACGTACCATACCAGCGGAGTCACCTAGTGCAG,5410 fluorescence intensity (a.u.)
15,AGAAGATTAACCGTTAAACCGTTTTATCAGCCATGGGATGCGGAGTCACCTAGTGCAG,16800 fluorescence intensity (a.u.)
16,CACGCCAGCGTTGTCCCCGTCCCCGTCCACAGCCACGCCGCGGAGTCACCTAGTGCAG,3850 fluorescence intensity (a.u.)
17,TTTATGGATAGAAGATGCACCGGCCAGGTCATGAAGATCACGGAGTCACCTAGTGCAG,4050 fluorescence intensity (a.u.)
18,TTGCAACCTCCACTGTTGACATGGCCTGCATCTTCCTGTCCGGAGTCACCTAGTGCAG,3340 fluorescence intensity (a.u.)
19,GGAGGAGATCGAGCAGCCGCTGACGCTCGTCGTCTACCTCCGGAGTCACCTAGTGCAG,3370 fluorescence intensity (a.u.)
20,CGTGTGGCGTGGACTTGTGGTGTATGTGTGGTGTGTGTTCCGGAGTCACCTAGTGCAG,4720 fluorescence intensity (a.u.)
21,TCATGGGTGGCGCCATGGCCACGCGTCTCCTCCTCGCCACCGGAGTCACCTAGTGCAG,4550 fluorescence intensity (a.u.)

# Shown bar-delimited: part of the list above.
row | Sequence | binding signal
1 | AATCATCACATCATCACCGTCATCTTCTCTAGCATAGCAACGGAGTCACCTAGTGCAG | 4630 fluorescence intensity (a.u.)
19 | GGAGGAGATCGAGCAGCCGCTGACGCTCGTCGTCTACCTCCGGAGTCACCTAGTGCAG | 3370 fluorescence intensity (a.u.)
21 | TCATGGGTGGCGCCATGGCCACGCGTCTCCTCCTCGCCACCGGAGTCACCTAGTGCAG | 4550 fluorescence intensity (a.u.)
